Test results reported in PubChem BioAssay AID1508600 (Functional Genomics Laboratory (NCATS/FGL), 2020).
The whole screen tested about 53,000 sequences, of which about 3,700 (7%) were called active.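 How the source made its calls: active means gene knockdowns whose robust z-score for IL-1 alpha signal is at least 2 or at most -2, so actives lie on both sides; inactive means the rest.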 This is one part of the list.

Assay: Components of the Cytosolic LPS Sensing Pathway: Gene Identification via Genome-wide siRNA Screen;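 further: robust z of the log signal after scaling to non-targeting control siRNA wells of the plate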
Settings: RAW264.7 macrophages, IL-1a HTRF, actives lie on both sides, screened at 100 nM (by protocol), cells primed 5 h with Pam3CSK4 first
Summary of the method: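 RAW264.7; siRNA 100 nM final, RNAiMAX, 48h 37 degrees C; Pam3CSK4 5 h; LipidA + TransIT-TKO 24 h; IL-1a HTRF; CellTiter-Glo viability; robust z vs negative-control median.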

With GGGAAUGAACCUAGAAGAGTT against Tymp as the sequence, how does the z-score read?
Its z-score is inactive: -1.2.

Which z-score does the source give for GGAUGCUGUUCGAGCUCAUTT against Cc2d1b here?
Its z-score is inactive: -0.537.

With GCAACGGACUUCCUCUCACTT against Tbck as the sequence, how does the z-score read?
The z-score was inactive: 0.696.

Which z-score does the source give for CCACAGUCUAUUCAAACUUTT against Ncapd3 here?
The z-score was inactive: -1.12.

With GGAACCUAUUGAAUCUGGGTT against Plpp7 as the sequence, how does the z-score read?
Its z-score is inactive: 1.46.

Which z-score does the source give for GGUGUGUUAAGGUUUUUAATT against Marchf1 here?
Its z-score is active: 3.68.

With GGAUGCUUACGGGAGACGATT against Tmem9 as the sequence, how does the z-score read?
The z-score was inactive: -0.595.

Which z-score does the source give for GGCUUGCCUUUUUUGCUAUTT against Olfr1404 here?
The z-score was inactive: 0.781.

Which z-score does the source give for GGGCAAUGGAAGAAUUCCUTT against BC030500 here?
The z-score was inactive: -1.69.

With GGUUAUUGAUGUGACGAUGTT against Rem2 as the sequence, how does the z-score read?
The z-score was inactive: 1.36.

With GAGUGCUAAGUAGGAAAGGTT against Olfr33 as the sequence, how does the z-score read?
Its z-score is inactive: -0.424.

For GAAGUCCUGGGACUUUAUGTT against Nudt14, which z-score is on record?
Its z-score is inactive: 0.208.

With GGCUAGAAAUCAUCAAUGATT against Ntrk2 as the sequence, how does the z-score read?
The z-score was inactive: 0.584.

For AUACCACAAAGGUCAGCACTT against Defb22, which z-score is on record?
The z-score was inactive: -1.31.

Which z-score does the source give for GGUCUUCUCGGGUCGAAAGTT against Cpt1a here?
Its z-score is inactive: 0.216.

For GCUUAAACAGCUUUACUUATT against Actr2, which z-score is on record?
Its z-score is inactive: 1.07.

Which z-score does the source give for GGCUGUGAGCCGUAAGACUTT against Mrpl16 here?
Its z-score is inactive: 0.791.

Which z-score does the source give for GGUGGAGAACUGAGAAUCUTT against Obp1a here?
Its z-score is inactive: -0.795.

With CCUUUGUAACUGGAAUUCUTT against Olfr197 as the sequence, how does the z-score read?
The z-score was inactive: 1.74.

For “CCGGAGCUAACACCUACAGTT against 1700049L16Rik”, which z-score is on record?
Its z-score is inactive: -0.257.

For GCAACGUGAAACAUAUUCUTT against Cpb1, which z-score is on record?
Its z-score is inactive: 1.69.

For GGUACAAAUGAAGCUUUGATT against Tmem72, which z-score is on record?
The z-score was inactive: 0.878.

For GCCGGACAGGGAAACUUAATT against Spem2, which z-score is on record?
The z-score was inactive: 1.33.

For UCUCAUGGAGUCUGCUGCUTT against Serpina1d, which z-score is on record?
The z-score was inactive: -1.91.

For GGAUUUAGGCCUUAUCAUCTT against Atf3, which z-score is on record?
The z-score was active: -2.12.

With CGGAUUCCUGCUCUUAAGUTT against Tdrd3 as the sequence, how does the z-score read?
The z-score was inactive: -1.17.

Which z-score does the source give for GGAGAUAUAAUCAGUGUGGTT against Ilkap here?
The z-score was inactive: -0.78.

For GGAAGAUAAUAUCCUUUGGTT against Olfr734, which z-score is on record?
Its z-score is inactive: -1.02.

For GGAGUUCAUUGAUCAUUCUTT against Ndufb5, which z-score is on record?
The z-score was active: 2.21.

With GCUUGACCUUUUUACUCCUTT against Siglece as the sequence, how does the z-score read?
The z-score was inactive: 0.262.

With CCUAUAAGUGAACUGUGAUTT against Aig1 as the sequence, how does the z-score read?
The z-score was inactive: -0.71.

With GGUCAUUGAGCUGAUGGACTT against Elovl1 as the sequence, how does the z-score read?
The z-score was active: 4.34.

With GUGCUAUACUCGGUCGUCATT against Olfr53 as the sequence, how does the z-score read?
Its z-score is inactive: 0.888.

With GGUAAUCACACUCAGUGUCTT against Cfap410 as the sequence, how does the z-score read?
Its z-score is inactive: -0.821.

Which z-score does the source give for CCAAACGGUUCAAAAAGAUTT against Efcab8 here?
Its z-score is inactive: -0.21.

For CCAUUAGCAAUGUGCUUCUTT against Unc13a, which z-score is on record?
Its z-score is inactive: 0.268.

For GCCUCUCAUUAGCAGUCAATT against Fbxl15, which z-score is on record?
Its z-score is inactive: -1.92.

With GCGUGAGUAUGAGAAAUGUTT against Zfp760 as the sequence, how does the z-score read?
The z-score was inactive: -0.785.

Which z-score does the source give for GCAUGUAGUUCAUCAGUACTT against Tubgcp5 here?
The z-score was inactive: 0.874.

With “GGCUGAAGACUACUUCCUATT against 4932416K20Rik” as the sequence, how does the z-score read?
The z-score was inactive: -1.02.

Which z-score does the source give for GGACCUCUUGUAUUUAUAATT against Lancl3 here?
The z-score was inactive: -1.09.

Which z-score does the source give for CCUCAGCUCCGUAGAUCUUTT against Arhgap29 here?
Its z-score is inactive: -0.896.

For GGGCUAAUUGUGAACAUUUTT against Slc7a1, which z-score is on record?
The z-score was active: 3.35.

Which z-score does the source give for GGAGACUGUAUGUGGCAAGTT against Camp here?
The z-score was inactive: -1.39.

Which z-score does the source give for “GGUUUGCUUUUAUGAGAGUTT against 2610044O15Rik8” here?
Its z-score is inactive: 0.477.

Which z-score does the source give for GGAUUUCAAAGGUGAUGAUTT against Xlr5c here?
Its z-score is inactive: -0.59.

Which z-score does the source give for GCUAUUUCUCACAGAAUUATT against Dmd here?
The z-score was inactive: 0.9.

With CCUCCGUUUGAUGACUCAATT against Tcte3 as the sequence, how does the z-score read?
Its z-score is inactive: 0.00656.

Which z-score does the source give for GGAGUCGGUUAGAAGCUCUTT against Trim15 here?
Its z-score is inactive: -0.503.

With GAUAAUUUGCACAUCCUCUTT against Nrn1l as the sequence, how does the z-score read?
The z-score was inactive: -0.999.

For GGUAAACAGAAUCUGGUGATT against Dhfr, which z-score is on record?
The z-score was inactive: -0.324.

For GGAGAGAUAAUCCAUAAUATT against Arl14ep, which z-score is on record?
Its z-score is inactive: 1.07.

With GCAGUUUCUAAUGAAGGUUTT against Ppp2r5a as the sequence, how does the z-score read?
The z-score was inactive: 0.416.

Which z-score does the source give for CCAACCCUAUUAGUGGAAGTT against Zfp738 here?
The z-score was inactive: 0.383.

For GGAUCUUUCGUGUGGAAAATT against Atf7ip, which z-score is on record?
The z-score was inactive: 0.87.

Which z-score does the source give for GCCAUAGCCAAUGAAUAUGTT against Fam98a here?
The z-score was inactive: -1.1.

With “GGUUCAAGUGGUAAGCAAUTT against 1700016D06Rik” as the sequence, how does the z-score read?
The z-score was inactive: 0.222.

For UAAUACAUUUCGAGCUGCATT against Rbfox3, which z-score is on record?
Its z-score is inactive: -0.551.

Which z-score does the source give for GGUGUAGACUCCAACAUGUTT against Aarsd1 here?
The z-score was inactive: 1.69.

With GGCCACACUUUGAAGUGACTT against Setd7 as the sequence, how does the z-score read?
Its z-score is inactive: -1.39.

For GGUCAUCUUAUUGAACUUCTT against S1pr1, which z-score is on record?
The z-score was inactive: -0.0857.

With CCCUGUUCGUAAUCAUUAUTT against Olfr467 as the sequence, how does the z-score read?
Its z-score is inactive: 0.158.

With GCAAGCCACAACAGUUAAATT against Rpl9 as the sequence, how does the z-score read?
Its z-score is inactive: 1.23.

With CCUAUUACUCAAACACAGATT against Arl5b as the sequence, how does the z-score read?
The z-score was inactive: -0.257.

Which z-score does the source give for GCUCAUAAAACUCCAAAAGTT against Mob4 here?
The z-score was inactive: -0.713.

For CAAGGACGGGCUUCUAGUUTT against Vmn1r189, which z-score is on record?
Its z-score is inactive: -0.0593.

With CCCUUUCGGGCAAUGGACUTT against Olfr986 as the sequence, how does the z-score read?
The z-score was inactive: -0.0157.

Which z-score does the source give for GCUCUCACCUUCAUUUGAATT against Tmem174 here?
Its z-score is inactive: -1.37.
